Publication PMC9440223
No constants are given. Whether binding was seen depends on the method and setting. For some of these results: Binding seen in cells or lysates may run through a third protein. Some binding calls cover weakened binding; strength is not graded here. For some of these results: Tags and fused reporters may be left off the sequences shown.

Chains of the proteins cited; added tags and fusions are not shown.
UniProt P35222: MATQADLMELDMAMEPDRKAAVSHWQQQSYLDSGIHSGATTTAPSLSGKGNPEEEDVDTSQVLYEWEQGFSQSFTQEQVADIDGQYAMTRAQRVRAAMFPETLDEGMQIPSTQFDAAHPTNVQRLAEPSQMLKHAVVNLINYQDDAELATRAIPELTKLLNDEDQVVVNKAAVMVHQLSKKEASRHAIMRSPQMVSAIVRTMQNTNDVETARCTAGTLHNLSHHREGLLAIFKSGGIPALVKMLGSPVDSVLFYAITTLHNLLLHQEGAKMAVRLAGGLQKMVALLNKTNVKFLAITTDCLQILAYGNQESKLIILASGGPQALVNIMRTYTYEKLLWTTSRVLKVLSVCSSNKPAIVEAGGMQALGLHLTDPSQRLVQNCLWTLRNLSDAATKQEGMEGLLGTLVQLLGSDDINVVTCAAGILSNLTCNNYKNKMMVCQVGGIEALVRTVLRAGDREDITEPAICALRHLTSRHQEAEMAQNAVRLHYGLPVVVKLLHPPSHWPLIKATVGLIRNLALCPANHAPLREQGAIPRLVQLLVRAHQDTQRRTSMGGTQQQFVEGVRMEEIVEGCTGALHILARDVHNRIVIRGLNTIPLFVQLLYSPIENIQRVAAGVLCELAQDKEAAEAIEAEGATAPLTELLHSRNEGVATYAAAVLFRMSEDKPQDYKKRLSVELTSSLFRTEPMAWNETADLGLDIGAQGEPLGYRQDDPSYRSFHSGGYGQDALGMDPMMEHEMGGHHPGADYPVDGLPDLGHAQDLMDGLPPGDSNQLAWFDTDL

What was measured:
[1] = target: T1, ZNT9 (Zinc Transporter 9) (human (endogenous in HCT-116 and SW620)) (UniProt Q6PML9); test: co-IP; SW620 cells without or with KCTD9 overexpression; β-catenin immunoprecipitates blotted for ZNT9 and ZNT9 immunoprecipitates blotted for β-catenin
T1 sequence: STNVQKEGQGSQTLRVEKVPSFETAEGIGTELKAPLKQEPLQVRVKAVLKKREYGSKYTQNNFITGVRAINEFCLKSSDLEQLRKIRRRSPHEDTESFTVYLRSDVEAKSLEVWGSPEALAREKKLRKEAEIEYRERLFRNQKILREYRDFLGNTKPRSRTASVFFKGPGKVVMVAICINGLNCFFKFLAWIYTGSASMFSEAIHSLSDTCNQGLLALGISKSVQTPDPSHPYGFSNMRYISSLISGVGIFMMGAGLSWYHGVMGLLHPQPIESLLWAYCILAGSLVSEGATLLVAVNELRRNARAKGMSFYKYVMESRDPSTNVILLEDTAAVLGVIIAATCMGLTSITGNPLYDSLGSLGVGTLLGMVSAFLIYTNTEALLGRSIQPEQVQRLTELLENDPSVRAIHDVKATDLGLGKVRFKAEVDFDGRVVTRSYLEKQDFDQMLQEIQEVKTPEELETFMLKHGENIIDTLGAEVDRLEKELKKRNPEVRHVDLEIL

ZNT9 in the pACT vector = target: T2, ZNT9 in the pACT vector (UniProt Q6PML9); test: two-hybrid; mammalian two-hybrid in SW620 cells: β-catenin in pBIND, ZNT9 in pACT, pG5luc reporter, read after 24 h; without or with KCTD9 overexpression
T2 sequence: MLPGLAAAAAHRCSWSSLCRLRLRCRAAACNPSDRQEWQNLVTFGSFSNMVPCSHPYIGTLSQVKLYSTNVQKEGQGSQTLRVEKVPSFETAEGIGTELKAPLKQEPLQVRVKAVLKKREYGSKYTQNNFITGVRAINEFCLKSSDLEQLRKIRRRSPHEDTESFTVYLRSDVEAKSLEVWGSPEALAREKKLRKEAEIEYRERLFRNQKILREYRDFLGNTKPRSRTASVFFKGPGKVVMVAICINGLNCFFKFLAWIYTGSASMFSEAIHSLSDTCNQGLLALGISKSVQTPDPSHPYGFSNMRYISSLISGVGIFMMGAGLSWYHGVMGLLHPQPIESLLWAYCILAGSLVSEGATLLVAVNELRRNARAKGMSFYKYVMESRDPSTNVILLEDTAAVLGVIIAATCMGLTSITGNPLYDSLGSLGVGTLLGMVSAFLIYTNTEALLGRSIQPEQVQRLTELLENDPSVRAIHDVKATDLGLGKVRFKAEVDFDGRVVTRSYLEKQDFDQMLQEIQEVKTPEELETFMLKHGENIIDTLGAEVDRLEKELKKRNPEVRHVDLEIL

[2] = target: T3, Recombinant Flag-tagged (3xF)-KCTD9 (human) (UniProt Q7L273); test: co-IP; Flag immunoprecipitation of ectopically expressed 3xF-KCTD9 from HCT-116 cells, Western blot for ZNT9; IP lysis buffer 0.5% NP-40, 0.5% Triton-X100, 150 mM NaCl, 20 mM Tris-HCl pH 7.3, 4 °C
T3 sequence: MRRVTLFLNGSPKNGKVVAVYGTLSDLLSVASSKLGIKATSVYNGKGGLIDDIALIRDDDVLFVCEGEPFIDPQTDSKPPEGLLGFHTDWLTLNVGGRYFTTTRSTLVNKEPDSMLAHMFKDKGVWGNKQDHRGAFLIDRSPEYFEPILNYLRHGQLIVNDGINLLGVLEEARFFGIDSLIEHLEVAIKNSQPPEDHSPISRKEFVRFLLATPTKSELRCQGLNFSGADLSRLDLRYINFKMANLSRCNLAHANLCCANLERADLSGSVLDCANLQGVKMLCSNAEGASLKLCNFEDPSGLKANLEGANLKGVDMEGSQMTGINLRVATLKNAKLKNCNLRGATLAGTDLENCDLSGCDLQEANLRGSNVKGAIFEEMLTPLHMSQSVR

[3] = target: β-catenin (human (endogenous in SW620)) (UniProt P35222); test: co-IP; SW620 cells without or with KCTD9 overexpression; β-catenin immunoprecipitates blotted for ZNT9 and ZNT9 immunoprecipitates blotted for β-catenin
[4] = target: T1, ZNT9 (Zinc Transporter 9) (human (endogenous in HCT-116 and SW620)); test: co-IP; ZNT9 immunoprecipitation from HCT-116 cells, Western blot for endogenous KCTD9; IP lysis buffer 0.5% NP-40, 0.5% Triton-X100, 150 mM NaCl, 20 mM Tris-HCl pH 7.3, 4 °C
[5] = target: β-catenin in the pBIND vector (UniProt P35222); test: two-hybrid; mammalian two-hybrid in SW620 cells: β-catenin in pBIND, ZNT9 in pACT, pG5luc reporter, read after 24 h; without or with KCTD9 overexpression

β-catenin (from UniProt P35222 1-781)
binding [1]: binds

B1: KCTD9, overexpressed (pCDH-KCTD9) (protein, UniProt Q7L273 1-389)
chain: T3 sequence
binding (ZNT9 in the pACT vector): binds
binding [1]: binds

B2: ZNT9 (Zinc Transporter 9) (protein, UniProt Q6PML9 68-568)
chain: T1 sequence
binding [2]: binds
binding [3]: binds

B3: endogenous KCTD9 (protein, UniProt Q7L273 1-389)
chain: T3 sequence
binding [4]: binds

B4: ZNT9 in the pACT vector (protein, UniProt Q6PML9 1-568)
chain: T2 sequence
binding [5]: binds
